{
  "source": "paper PMC9323911",
  "about": "“Comparative Metabolomics Study of the Impact of Articaine and Lidocaine on the Metabolism of SH-SY5Y Neuronal Cells” (Metabolites, 2022)",
  "origin": "cited, not measured here",
  "key": {"[1]": {"test_system": "neuronal cells of a different lineage (SHEP)", "conditions": "24 h; cited from earlier work"}, "SH-SY5Y cells": {"test_system": "SH-SY5Y cells", "conditions": "20 min incubation of SH-SY5Y cells; cited from earlier work"}},
  "note": "Where a name gives a salt, the structure may show the parent alone.",
  "data": [
    {"smiles": "CCN(CC)CC(=O)Nc1c(C)cccc1C", "note": "[LDC, lidocaine hydrochloride]", "values": [
      {"measurement": "LD50", "setting": "[1]", "value": 9.2, "unit": "mM"},
      {"measurement": "LD50", "setting": "SH-SY5Y cells", "value": 3.3, "unit": "mM"}
    ]}
  ]
}
